Experimental data from publication PMC9051519.

Chains of the proteins cited; added tags and fusions are not shown. Lines headed by an entry give the natural chain unless they say otherwise; changes in a name come on top.
UniProt D4GUK5: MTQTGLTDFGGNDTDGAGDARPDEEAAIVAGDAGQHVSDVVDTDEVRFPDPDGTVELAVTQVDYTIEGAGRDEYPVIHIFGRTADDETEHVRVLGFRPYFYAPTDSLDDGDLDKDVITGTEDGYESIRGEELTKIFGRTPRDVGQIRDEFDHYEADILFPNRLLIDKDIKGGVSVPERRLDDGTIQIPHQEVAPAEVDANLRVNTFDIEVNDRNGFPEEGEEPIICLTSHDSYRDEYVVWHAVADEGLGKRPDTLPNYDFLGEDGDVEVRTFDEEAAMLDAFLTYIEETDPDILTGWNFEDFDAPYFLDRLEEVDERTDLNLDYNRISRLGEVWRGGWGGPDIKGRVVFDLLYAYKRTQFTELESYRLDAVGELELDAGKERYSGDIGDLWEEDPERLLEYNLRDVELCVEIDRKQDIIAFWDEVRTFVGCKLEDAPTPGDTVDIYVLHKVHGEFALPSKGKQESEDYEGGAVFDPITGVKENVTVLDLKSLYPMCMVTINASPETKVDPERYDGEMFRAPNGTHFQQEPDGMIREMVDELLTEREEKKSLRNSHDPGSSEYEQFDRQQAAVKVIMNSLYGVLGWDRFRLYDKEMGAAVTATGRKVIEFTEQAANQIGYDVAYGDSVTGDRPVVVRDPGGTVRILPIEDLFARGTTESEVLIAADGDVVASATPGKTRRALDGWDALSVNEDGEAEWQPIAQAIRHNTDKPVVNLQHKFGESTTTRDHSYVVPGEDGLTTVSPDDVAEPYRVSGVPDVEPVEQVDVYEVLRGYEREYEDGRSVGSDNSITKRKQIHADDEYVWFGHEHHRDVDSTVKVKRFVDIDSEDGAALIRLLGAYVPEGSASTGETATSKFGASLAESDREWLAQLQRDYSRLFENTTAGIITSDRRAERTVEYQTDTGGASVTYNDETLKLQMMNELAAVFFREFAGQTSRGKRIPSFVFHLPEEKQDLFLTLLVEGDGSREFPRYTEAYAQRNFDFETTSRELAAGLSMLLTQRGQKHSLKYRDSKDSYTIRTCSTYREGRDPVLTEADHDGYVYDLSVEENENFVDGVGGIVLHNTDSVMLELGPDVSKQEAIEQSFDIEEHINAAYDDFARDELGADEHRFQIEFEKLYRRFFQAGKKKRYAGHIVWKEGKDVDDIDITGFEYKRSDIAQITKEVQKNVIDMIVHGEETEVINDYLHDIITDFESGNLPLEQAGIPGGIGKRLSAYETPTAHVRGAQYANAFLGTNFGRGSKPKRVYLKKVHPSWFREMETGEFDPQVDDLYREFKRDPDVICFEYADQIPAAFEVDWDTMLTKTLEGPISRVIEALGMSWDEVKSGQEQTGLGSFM
UniProt D4GQN5: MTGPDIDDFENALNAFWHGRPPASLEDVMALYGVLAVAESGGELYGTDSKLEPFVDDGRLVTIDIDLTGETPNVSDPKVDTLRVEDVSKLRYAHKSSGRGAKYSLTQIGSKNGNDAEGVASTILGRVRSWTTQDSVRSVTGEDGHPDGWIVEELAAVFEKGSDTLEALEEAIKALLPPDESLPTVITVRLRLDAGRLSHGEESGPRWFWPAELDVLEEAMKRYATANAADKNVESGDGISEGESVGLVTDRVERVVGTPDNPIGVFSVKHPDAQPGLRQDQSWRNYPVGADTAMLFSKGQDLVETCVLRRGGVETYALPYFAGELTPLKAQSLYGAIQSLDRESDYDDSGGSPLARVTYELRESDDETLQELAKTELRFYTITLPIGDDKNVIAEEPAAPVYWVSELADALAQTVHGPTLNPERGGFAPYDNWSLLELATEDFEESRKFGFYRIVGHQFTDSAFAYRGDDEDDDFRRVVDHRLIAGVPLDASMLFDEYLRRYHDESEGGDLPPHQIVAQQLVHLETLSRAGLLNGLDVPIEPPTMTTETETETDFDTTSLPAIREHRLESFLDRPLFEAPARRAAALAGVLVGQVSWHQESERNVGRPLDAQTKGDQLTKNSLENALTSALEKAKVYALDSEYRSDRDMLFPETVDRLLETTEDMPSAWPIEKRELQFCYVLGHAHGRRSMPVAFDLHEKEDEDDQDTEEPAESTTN
UniProt D4GPF6: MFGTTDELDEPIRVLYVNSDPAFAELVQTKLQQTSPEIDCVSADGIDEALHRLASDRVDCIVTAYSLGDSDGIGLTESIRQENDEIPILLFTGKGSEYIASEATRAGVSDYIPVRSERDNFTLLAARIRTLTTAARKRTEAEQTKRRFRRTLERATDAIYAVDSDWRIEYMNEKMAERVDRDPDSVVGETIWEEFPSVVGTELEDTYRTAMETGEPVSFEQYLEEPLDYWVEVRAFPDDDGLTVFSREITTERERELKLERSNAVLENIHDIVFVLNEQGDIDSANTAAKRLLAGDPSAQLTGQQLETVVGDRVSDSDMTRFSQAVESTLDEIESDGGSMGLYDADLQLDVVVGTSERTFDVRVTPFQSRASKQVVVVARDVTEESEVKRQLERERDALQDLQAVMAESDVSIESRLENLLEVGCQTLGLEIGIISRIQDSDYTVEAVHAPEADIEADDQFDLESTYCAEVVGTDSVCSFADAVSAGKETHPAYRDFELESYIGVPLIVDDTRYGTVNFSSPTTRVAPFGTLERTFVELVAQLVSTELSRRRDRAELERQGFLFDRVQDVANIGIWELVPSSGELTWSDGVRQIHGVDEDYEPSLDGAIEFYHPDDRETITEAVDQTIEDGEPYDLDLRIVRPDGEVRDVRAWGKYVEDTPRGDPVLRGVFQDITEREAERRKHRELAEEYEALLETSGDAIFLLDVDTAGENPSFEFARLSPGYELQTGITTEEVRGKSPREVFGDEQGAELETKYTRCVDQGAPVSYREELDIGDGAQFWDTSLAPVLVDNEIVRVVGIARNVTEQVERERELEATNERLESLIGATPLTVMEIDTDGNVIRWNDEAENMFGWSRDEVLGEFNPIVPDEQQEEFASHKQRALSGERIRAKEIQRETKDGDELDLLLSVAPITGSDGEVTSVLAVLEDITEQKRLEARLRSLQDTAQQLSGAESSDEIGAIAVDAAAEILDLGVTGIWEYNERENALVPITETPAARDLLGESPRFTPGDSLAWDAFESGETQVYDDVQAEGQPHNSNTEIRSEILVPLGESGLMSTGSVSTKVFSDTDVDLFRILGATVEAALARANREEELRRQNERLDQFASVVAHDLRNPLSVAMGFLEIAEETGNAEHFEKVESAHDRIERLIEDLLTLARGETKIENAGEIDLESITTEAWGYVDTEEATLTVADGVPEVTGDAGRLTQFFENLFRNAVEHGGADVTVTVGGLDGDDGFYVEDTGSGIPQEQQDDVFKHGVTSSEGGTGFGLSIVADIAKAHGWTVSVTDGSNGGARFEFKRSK
UniProt D4GVJ5: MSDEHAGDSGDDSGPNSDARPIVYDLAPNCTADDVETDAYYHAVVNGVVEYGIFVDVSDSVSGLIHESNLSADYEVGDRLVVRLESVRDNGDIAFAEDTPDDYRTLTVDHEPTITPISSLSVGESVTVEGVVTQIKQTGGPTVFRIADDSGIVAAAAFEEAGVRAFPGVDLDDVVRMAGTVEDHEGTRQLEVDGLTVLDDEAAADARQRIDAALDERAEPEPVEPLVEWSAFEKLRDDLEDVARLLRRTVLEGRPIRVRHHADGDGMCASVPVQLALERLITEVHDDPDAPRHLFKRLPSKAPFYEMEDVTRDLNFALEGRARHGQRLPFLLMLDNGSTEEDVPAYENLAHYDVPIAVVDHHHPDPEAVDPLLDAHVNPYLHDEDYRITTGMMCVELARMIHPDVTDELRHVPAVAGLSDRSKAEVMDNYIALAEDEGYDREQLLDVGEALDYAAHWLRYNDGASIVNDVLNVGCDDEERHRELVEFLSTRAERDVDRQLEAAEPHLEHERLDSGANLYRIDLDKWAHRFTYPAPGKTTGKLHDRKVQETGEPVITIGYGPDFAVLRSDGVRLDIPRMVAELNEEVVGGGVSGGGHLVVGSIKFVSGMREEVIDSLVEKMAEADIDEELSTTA
UniProt D4GUM1: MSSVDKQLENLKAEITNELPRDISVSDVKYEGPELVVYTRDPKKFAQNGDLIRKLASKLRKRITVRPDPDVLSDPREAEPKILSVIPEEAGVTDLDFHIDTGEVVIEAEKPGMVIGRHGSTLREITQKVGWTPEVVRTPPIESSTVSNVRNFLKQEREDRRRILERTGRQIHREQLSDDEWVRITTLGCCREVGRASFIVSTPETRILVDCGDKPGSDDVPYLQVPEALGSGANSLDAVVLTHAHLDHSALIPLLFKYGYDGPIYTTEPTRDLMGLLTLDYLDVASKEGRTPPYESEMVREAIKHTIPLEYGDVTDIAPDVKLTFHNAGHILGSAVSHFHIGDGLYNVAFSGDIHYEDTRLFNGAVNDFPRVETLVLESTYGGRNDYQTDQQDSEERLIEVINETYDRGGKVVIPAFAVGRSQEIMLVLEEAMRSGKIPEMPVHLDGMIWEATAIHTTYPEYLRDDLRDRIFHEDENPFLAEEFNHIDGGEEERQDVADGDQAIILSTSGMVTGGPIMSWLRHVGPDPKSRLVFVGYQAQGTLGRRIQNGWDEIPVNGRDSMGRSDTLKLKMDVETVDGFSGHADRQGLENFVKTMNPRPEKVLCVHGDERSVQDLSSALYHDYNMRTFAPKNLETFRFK
UniProt D4GSD5: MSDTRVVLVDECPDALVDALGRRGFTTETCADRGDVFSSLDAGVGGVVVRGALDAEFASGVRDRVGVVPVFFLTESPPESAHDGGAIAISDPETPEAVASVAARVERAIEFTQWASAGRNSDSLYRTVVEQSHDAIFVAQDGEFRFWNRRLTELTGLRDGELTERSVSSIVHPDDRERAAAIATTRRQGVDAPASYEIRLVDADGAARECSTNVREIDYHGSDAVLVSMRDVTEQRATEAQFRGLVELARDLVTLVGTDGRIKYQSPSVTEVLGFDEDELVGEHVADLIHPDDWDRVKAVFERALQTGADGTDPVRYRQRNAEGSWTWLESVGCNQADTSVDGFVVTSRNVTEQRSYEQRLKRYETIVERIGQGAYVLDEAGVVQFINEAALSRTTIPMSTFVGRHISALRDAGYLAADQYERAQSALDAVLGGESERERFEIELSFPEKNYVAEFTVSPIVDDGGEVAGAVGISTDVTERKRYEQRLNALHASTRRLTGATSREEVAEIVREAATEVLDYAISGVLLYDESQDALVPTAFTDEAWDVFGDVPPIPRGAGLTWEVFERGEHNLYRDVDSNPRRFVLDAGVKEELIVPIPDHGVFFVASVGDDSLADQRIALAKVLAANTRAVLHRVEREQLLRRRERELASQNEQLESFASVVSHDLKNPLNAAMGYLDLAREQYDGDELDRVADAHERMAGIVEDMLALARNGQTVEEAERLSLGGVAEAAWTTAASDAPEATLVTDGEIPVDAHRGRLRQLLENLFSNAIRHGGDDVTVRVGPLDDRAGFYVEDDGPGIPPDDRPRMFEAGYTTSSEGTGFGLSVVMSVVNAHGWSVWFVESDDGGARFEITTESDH

T1: FLAG-Cas1 fusion protein (Haloferax volcanii) (UniProt D4GQP0)
T1 sequence: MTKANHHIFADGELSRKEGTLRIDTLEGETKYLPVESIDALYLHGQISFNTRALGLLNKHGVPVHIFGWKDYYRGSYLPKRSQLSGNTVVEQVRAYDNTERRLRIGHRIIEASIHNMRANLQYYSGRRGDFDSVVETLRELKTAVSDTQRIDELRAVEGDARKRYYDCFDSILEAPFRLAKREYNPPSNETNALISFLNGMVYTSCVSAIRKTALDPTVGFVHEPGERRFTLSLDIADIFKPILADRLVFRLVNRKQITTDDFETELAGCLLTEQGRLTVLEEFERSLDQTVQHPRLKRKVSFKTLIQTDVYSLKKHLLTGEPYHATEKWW

B1: UvrABC system protein A (protein, UniProt D4H019 1-983)
chain: MSKDYIEVRGAEEHNLKNLDVRIPRETFTVVTGLSGSGKSSLAFDTVYAEGQRRYIESLSAYARNFLGQMDKPKVEAVEGLSPAISIDQKNGANNPRSTVGTVTELHDYLRLLYARVGTQYDPITGAEVGEQSAQDMVDQILELPEGTRAKVVAPVVRDQKGEFKDLFSDLVSEGYARVEVDGEEFDLSFETPDLDKNYDHTIDVVVDRVKVAPEARSRIADSVETALEEAGGVLKLIVPDPPADLPFASNTRSTGSLAGEGDDRLVVEFSEELGNPNSSFRFSEIETRSFSFNSPHGACPECEGLGKAKEVDPDLVVTDPSKPLKHVFEPWSYNRTYYRRQLDNVADHFGVSVDTPFEELSDEVQDAFLFGTSEDVVFEWTTKNGTRHKEHPFEGVVGNLERRHVETDSDRTRDHIEEFMAVTTCPDCNGSRLKEQSRHVRVGGTTLPEVNRMTIAGALEHFEGLEADLSERHRTIAQEILKEIRARLGFMTEVGLEYLTLDREAATLSGGESQRIRLATQVGSGLVGVLYVLDEPSIGLHQRDNDKLLNTLEGLRDLGNTLIVVEHDEETMRRADEIIDMGPGPGKRGGEVVAQGDFDDIVAADDSITADYLSGRKDIDVPESRREGDGELVVRGARQHNLDDLDVPIPLETFTAVTGVSGSGKSTLMHEILYKGLARRMNDNTSVDPGEHDAIEGYDDIETVRLIDQSPIGRTPRSNPATYTGVFDYVRELFAETKLSKQRGYEKGRFSFNVKGGRCEACKGQGNVKIEMNFLSDVYVPCEECNGARYNAETLDVTYKDKTIADVLDMEVDEALDFFEANSQIRRRLQLLHDVGLGYMQLGQPSTTLSGGEAQRVKLAEELGKKQTGDTLYLLDEPTTGLHKEDERKLIEVLQRLVDNGNTVLVVEHELDLVKNADHIVDLGPEGGAGGGTIVASGTPEEIAANPDSHTGRYLRDYLPDVDEEGPRSDRRKPAKVTNDDD
B2: DNA mismatch repair protein MutS (protein, UniProt D4GSE9 1-924)
chain: MTTQGIVGQFLSLKEETDADLLAMQCGDFYEFFADDAETVGRELDLKVSQKSSHGSSYPMAGVPLNDLTPYLKALVERGYRVAVADQYETESGDLRREVKRVVTPGTLLETSRADAQFLAAVVTDGDGVGLAFSDITTGQFLVTEAATVDDAAAELYRFAPVEVLPGPELRSDDETLSRLREATDASFSLFATEAFAPGRARHAVREQFGASTVDSVGLDSDLATRAAGGVLAYVEETGAGVLRSMTRLQVYHPSDLLELDATTQRNLELTETMHGDRSGSLFDTIDHTVTSPGGRLLREWLTRPRRDRDELARRHDAVESLASAALARERVREVLDGAYDLERLASRSASGSAGASELLSVRDTLSVLPALADAIEGTELADSPLAEVVSRPDRDAAADLRTDLADALAEDPPKTVTQGGLFQTGYDDELDDLIERHESAKSWLDTLADREKRDHGLSHVTVDRNKTDGYYIQVGKSVADQVPDHYRQIKTLKNSKRFVTEELEEKEREILRLEEARGDLEYELFEDLRERVARHAELLQDVGRTIAEVDALASLATHAAGNGWTRPELTEAGALDIEAGRHPVVETTTDFVPNDLRMDDERGFLIVTGPNMSGKSTYMRQAALITLLAQVGSFVPARSATVGVVDGIYTRVGALDELAQGRSTFMVEMQELSNILHSATEDSLVILDEVGRGTATYDGISIAWAATEYLHNEVRAKTLFATHYHELTSLADHLDRVANVHVAADERDGDVTFLRTVVDGPTDRSYGIHVADLAGVPRPVVDRAGDVLDRLREEKAIEAKGSGTSEPVQAVFDVGSGQMKVAEAGDSGGDGDDSAGSGAPANGATGTGAAGNGSVDAAAAVEGSAEADRAGTGSDSEAEAALDPETEAVLDELQSTDVNDTSPLDLMAKVQAWQSKLDGGDGE

molecular target: T1, FLAG-Cas1 fusion protein (Haloferax volcanii); experiment: affinity purification with mass spectrometry; FLAG-Cas1 expressed in H. volcanii Δcas1; S100 lysate treated with DNase and RNase A, 150 mM NaCl; anti-FLAG M2 affinity gel overnight at 4°C, washed with 50 mM Tris/HCl pH 7.4, 150 mM NaCl, eluted with 3xFLAG peptide; gel filtration (Superdex 75 Increase), fractions with Cas1 at about 670 kDa analysed by MS; two FLAG-Cas1 purifications, one FLAG-only control

| binding | Molecule |
| --- | --- |
| binds | DNA-directed DNA polymerase B (intein-containing) (from UniProt D4GUK5) (enzyme) |
| binds | Cas8b (from UniProt D4GQN5) |
| binds | receiver/sensor box histidine kinase (from UniProt D4GPF6) (enzyme) |
| binds | Hef-associated 3 exonuclease (from UniProt D4GVJ5) (enzyme) |
| binds | zinc-dependent nuclease CPSF1 (from UniProt D4GUM1) (enzyme) |
| binds | sensor box histidine kinase (from UniProt D4GSD5) (enzyme) |
| binds | B1 |
| binds | B2 |

No constants are given. Whether binding was seen depends on the method and setting. Binding seen in cells or lysates may run through a third protein. A yes stands for co-enrichment or nearness to the bait. Other partners may have been found. Where a sequence is shown, tags or fusion partners need not be part of it.
